Literature values, collected in patent US20260224521A1, “BIOMOLECULE FOR TREATMENT OF CORNEAL PATHOLOGIES” (Board of Supervisors of Louisiana State University and …, priority 2019, published 2026).
At least one compound was matched to its structure with a doubt left.

Test system: rabbit cornea
Details: treatment with PEDF or DHA alone (19); cited from earlier work

SMILES: CC/C=C\C/C=C\C/C=C\C/C=C\C/C=C\C/C=C\CCC(=O)O [DHA, docosahexaenoic acid]
- cornea nerve regeneration: no increase
